Assay results from doi:10.1101/2022.10.16.512122.
No constants are given. Whether binding was seen depends on the method and setting. In cells and extracts the contact can be indirect. Some binding calls cover weakened binding; strength is not graded here. Tags and fused reporters may be left off the sequences shown.

Amino acid sequences for entries named in this document (tags omitted). A change or cut given only in a name is not applied to a line headed by its entry. Chains listed by the source or under a name are the forms on record and can include a tag or linker.
Orb2A (Q9VSR3, form named): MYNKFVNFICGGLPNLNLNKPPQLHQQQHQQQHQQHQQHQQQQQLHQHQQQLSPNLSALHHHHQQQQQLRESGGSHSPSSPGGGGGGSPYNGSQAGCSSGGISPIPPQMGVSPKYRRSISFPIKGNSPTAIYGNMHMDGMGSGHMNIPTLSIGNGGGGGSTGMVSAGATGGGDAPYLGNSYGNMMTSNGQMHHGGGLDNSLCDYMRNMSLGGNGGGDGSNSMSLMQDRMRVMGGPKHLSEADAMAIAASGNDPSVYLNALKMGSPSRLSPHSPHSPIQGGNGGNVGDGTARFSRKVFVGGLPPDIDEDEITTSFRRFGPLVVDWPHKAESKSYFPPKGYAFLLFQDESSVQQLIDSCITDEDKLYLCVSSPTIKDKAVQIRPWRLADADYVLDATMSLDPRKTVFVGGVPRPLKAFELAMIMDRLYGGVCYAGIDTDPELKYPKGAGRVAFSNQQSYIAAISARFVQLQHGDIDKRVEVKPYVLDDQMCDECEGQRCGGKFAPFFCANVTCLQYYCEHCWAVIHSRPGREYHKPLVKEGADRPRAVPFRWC
UniProt Q24133: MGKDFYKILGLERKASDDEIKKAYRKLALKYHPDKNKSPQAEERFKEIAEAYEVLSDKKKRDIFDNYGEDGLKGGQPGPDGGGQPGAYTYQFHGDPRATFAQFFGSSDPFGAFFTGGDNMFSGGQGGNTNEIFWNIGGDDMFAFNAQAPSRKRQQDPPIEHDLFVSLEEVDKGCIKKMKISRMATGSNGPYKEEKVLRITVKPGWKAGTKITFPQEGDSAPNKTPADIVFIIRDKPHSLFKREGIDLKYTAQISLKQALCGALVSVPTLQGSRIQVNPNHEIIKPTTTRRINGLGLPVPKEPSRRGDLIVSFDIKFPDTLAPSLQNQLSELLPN
UniProt P29843: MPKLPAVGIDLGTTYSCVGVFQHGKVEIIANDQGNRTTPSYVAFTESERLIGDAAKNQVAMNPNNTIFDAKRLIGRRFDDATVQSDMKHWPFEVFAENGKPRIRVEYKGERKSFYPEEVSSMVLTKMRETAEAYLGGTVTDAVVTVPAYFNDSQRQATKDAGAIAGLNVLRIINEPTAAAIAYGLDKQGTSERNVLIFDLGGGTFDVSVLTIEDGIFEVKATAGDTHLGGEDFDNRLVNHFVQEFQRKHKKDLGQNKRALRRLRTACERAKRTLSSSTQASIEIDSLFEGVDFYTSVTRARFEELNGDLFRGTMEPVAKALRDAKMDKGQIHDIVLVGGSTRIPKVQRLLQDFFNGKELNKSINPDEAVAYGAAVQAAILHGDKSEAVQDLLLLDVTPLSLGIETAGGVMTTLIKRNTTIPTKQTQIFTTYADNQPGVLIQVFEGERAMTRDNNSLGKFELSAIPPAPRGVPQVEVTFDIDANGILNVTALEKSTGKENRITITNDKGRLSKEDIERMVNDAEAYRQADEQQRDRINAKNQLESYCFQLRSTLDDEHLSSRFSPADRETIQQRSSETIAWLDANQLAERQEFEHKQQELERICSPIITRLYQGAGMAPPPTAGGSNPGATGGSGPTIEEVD
UniProt P11147: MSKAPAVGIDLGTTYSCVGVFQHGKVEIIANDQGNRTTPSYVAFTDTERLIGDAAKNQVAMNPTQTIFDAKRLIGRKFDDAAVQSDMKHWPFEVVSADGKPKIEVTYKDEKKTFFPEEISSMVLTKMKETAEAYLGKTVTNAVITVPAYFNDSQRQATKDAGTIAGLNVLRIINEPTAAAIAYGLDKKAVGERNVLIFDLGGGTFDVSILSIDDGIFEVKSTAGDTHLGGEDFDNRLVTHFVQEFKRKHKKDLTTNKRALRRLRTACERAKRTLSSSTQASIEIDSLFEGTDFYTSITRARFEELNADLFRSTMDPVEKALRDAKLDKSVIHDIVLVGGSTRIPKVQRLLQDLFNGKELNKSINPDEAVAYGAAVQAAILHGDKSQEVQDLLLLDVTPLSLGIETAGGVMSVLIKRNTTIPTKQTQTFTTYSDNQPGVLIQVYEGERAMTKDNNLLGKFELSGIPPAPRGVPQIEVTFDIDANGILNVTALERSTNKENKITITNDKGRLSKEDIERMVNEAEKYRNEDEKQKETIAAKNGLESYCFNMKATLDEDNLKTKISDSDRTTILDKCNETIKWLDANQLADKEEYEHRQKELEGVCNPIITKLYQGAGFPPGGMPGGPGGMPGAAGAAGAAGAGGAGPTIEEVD
UniProt P82910: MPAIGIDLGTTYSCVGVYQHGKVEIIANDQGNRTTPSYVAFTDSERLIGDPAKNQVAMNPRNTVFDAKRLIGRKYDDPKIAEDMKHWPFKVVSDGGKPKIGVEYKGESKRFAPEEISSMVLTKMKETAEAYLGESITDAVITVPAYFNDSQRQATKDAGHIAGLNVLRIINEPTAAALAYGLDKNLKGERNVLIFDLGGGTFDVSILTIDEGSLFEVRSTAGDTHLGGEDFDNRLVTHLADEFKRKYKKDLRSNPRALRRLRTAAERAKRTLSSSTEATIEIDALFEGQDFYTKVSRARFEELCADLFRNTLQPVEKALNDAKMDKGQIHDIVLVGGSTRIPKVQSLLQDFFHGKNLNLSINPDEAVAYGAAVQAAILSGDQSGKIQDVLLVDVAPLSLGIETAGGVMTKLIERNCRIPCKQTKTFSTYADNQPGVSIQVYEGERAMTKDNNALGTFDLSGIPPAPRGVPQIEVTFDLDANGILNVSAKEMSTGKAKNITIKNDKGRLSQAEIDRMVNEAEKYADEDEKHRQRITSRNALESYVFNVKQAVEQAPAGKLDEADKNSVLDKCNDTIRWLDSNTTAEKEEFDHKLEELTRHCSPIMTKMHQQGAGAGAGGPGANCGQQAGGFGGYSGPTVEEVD

Biological target: Orb2A (Drosophila) (UniProt Q9VSR3)
Test: co-IP

| Molecule | binding |
| --- | --- |
| DnaJ1-HA (from UniProt Q24133 1-334) | no binding |
| Hsc70-1-Flag (from UniProt P29843 1-641) | binds |
| Hsc70-4-Flag (from UniProt P11147 1-651) | binds |
| Hsp70Aa-Flag (from UniProt P82910 1-642) | binds |
| CG4164-HA (protein, UniProt Q9VPQ2 23-354) GRDFYKILNVKKNANTNEVKKAYRRLAKELHPDKNKDDPDASTKFQDLGAAYEVLSNPDKRKTYDRCGEECLKKEGMMDHGGDPFSSFFGDFGFHFGGDGQQQDAPRGADIVMDLYVSLEELYSGNFVEIVRNKPVTKPASGTRKCNCRQEMVTRNLGPGRFQMIQQTVCDECPNVKLVNEERTLEIEVEQGMVDGQETRFVAEGEPHIDGEPGDLIVRVQQMPHPRFLRKNDDLYTNVTISLQDALVGFSMEIKHLDGHLVPVTREKVTWPGARIRKKGEGMPNFENNNLTGNLYITFDVEFPKKDLTEEDKEALKKILDQSSINRIYNGL | binds |
